Source: patent US12496350B2 (Ohio State Innovation Foundation, priority 2018, dated 2025)
Structures can show the parent of a compound that is named as a salt. Some of these results come from one statement about several compounds together. Where a SMILES comes first, the peptide text is derived from it. [ ]: non-standard residue; d: D form. The star is where a group is joined. Tle = CC(C)(C)[C@H](N)C(=O)O; Nicotinoyl = O=C(c1cccnc1)*; Tfa = O=C(C(F)(F)F)*

Molecular target: T1, CAL PDZ domain (CALP5-His) (Homo sapiens, UniProt Q9HD26)
T1 construct: His
Assay: FP/FA-based competition assay, Condition A (probe peptide 26)
Type: binding
Conditions: Arg replaced with Leu, Lys(NIC), Lys(TFA) or homoArg
Source text: First, the C-terminal valine (position 0) was replaced with a variety of residues and evaluated for binding to CAL PDZ domain in silico.

SMILES	effect of substitution at P-1 on CAL-binding affinity
CC(=O)N[C@@H](CCCNC(=N)N)C(=O)N[C@@H](CCCNC(=N)N)C(=O)N[C@@H](Cc1ccccc1)C(=O)N[C@@H](Cc1c[nH]c2ccccc12)C(=O)N[C@@H](CCC(N)=O)C(=O)N[C@@H](CS)C(=O)N[C@H](C(=O)N[C@@H](CC(C)C)C(=O)N[C@H](C(=O)O)C(C)(C)C)[C@@H](C)O [Compound 7] (Ac-RRFWQCTL[Tle]-OH)	none of the substitutions further increased the CAL-binding affinity
CC(=O)N[C@@H](CCCNC(=N)N)C(=O)N[C@@H](CCCNC(=N)N)C(=O)N[C@@H](Cc1ccccc1)C(=O)N[C@@H](Cc1c[nH]c2ccccc12)C(=O)N[C@@H](CCC(N)=O)C(=O)N[C@@H](CS)C(=O)N[C@H](C(=O)N[C@@H](CCCCNC(=O)c1cccnc1)C(=O)N[C@H](C(=O)O)C(C)(C)C)[C@@H](C)O [Compound 8] (Ac-RRFWQCTK(Nicotinoyl)[Tle]-OH)	none of the substitutions further increased the CAL-binding affinity
CC(=O)N[C@@H](CCCNC(=N)N)C(=O)N[C@@H](CCCNC(=N)N)C(=O)N[C@@H](Cc1ccccc1)C(=O)N[C@@H](Cc1c[nH]c2ccccc12)C(=O)N[C@@H](CCC(N)=O)C(=O)N[C@@H](CS)C(=O)N[C@H](C(=O)N[C@@H](CCCCNC(=O)C(F)(F)F)C(=O)N[C@H](C(=O)O)C(C)(C)C)[C@@H](C)O [Compound 9] (Ac-RRFWQCTK(Tfa)[Tle]-OH)	none of the substitutions further increased the CAL-binding affinity
CC(=O)N[C@@H](CCCNC(=N)N)C(=O)N[C@@H](CCCNC(=N)N)C(=O)N[C@@H](Cc1ccccc1)C(=O)N[C@@H](Cc1c[nH]c2ccccc12)C(=O)N[C@@H](CCC(N)=O)C(=O)N[C@@H](CS)C(=O)N[C@H](C(=O)N[C@@H](CCCCNC(=N)N)C(=O)N[C@H](C(=O)O)C(C)(C)C)[C@@H](C)O [Compound 10, Ac-Arg-Arg-Phe-Trp-Gln-Cys-Thr-(HomoArg)-Tle-OH]	none of the substitutions further increased the CAL-binding affinity
